The text below walks through data of publication PMC6465933, “Direct Binding of the Flexible C-Terminal Segment of Periaxin to β4 Integrin Suggests a Molecular Basis for CMT4F” (Frontiers in Molecular Neuroscience, 2019).

For experiment [1], the target named is T1, PRX expressed in HEK293 cells (UniProt Q63425).
T1 sequence: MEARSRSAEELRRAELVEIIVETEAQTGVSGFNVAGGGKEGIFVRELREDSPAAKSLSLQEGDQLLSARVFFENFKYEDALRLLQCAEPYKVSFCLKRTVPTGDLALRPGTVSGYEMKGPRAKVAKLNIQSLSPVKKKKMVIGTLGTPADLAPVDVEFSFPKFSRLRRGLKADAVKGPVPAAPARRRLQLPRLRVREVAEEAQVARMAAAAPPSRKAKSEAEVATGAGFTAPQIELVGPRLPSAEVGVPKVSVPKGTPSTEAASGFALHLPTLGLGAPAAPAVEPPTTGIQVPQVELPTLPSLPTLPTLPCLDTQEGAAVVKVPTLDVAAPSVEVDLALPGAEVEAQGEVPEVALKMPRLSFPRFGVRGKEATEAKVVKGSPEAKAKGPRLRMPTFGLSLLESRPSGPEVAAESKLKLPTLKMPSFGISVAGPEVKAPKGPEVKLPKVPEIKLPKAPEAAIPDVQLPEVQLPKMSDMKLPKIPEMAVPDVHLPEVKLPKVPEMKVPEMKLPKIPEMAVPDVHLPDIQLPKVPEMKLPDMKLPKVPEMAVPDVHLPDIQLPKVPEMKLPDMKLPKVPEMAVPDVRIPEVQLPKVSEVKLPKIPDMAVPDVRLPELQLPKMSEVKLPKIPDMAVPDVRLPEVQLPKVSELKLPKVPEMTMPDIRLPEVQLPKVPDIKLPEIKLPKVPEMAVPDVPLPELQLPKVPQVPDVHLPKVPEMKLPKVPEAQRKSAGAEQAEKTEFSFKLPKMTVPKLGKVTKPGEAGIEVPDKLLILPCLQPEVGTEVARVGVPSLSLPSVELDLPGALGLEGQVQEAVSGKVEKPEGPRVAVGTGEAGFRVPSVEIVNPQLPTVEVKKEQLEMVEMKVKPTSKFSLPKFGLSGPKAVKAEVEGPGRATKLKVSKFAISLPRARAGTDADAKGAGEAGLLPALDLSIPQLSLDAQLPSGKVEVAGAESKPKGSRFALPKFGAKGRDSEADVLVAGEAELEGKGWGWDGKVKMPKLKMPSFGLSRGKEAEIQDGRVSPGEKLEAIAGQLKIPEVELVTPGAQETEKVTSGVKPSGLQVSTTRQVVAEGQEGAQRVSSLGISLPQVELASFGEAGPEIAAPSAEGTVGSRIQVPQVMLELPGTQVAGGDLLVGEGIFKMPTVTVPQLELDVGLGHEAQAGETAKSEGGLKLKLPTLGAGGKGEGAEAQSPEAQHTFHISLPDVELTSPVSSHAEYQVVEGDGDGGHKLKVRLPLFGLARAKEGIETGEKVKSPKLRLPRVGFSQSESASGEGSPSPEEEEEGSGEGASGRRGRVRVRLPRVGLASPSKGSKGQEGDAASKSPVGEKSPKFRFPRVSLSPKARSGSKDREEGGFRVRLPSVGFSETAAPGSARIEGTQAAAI
Put plainly: co-IP; HEK293 cells coexpressing β4 integrin, α6 integrin and PRX; IP with β4 integrin or PRX antibodies; Western blot. In general terms: In western blotting, separated proteins are transferred to a membrane and probed.

The target of experiment [2] is T2, GST-β4-FNIII-3 fusion protein (β4 integrin amino acids 1512–1593) (UniProt Q64632).
T2 sequence: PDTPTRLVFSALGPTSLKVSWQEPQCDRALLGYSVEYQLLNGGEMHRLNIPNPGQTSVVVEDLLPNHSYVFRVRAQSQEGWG
Put plainly: pull-down; GST fusion protein bound to Glutathione-Sepharose incubated with a sciatic nerve lysate; bound proteins detected by Western blot; only the target purified.

The target of experiment [3] is T3, His-tagged rat β4-FNIII-3 (β4 integrin amino acids 1512–1602) (rat) (UniProt Q64632).
T3 sequence: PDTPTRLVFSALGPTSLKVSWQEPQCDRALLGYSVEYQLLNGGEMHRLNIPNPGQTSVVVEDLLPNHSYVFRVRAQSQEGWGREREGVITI
The experiment is described as follows: condition: 1 mM peptide in the syringe, 100 μM His-β4-FNIII-3 in the cell; ITC; 1 mM peptide in the syringe, 100 μM His-β4-FNIII-3 in the cell, 25°C; both purified.

The target in experiment [4] is rat β4 integrin, full length, expressed in HEK293 cells (rat) (UniProt Q64632). Put plainly: co-IP; HEK293 cells coexpressing β4 integrin, α6 integrin and PRX; IP with β4 integrin or PRX antibodies; Western blot.

No constants are given. Whether binding was seen depends on the method and setting. For some assays here: In cells and extracts the contact can be indirect. Some binding calls cover weakened binding; strength is not graded here. For some assays here: Where a sequence is shown, tags or fusion partners need not be part of it.

For the molecule “rat β4 integrin, full length, expressed in HEK293 cells (from UniProt Q64632 28-1807) (receptor)”, in experiment [1], the binding result was “binds”.

B1: dystrophin-related protein 2 in sciatic nerve lysate (protein, UniProt Q05AA6 1-957)
chain: MQPLVMQGCPYTLPRCHEWHAADRFHHSSSLRNTCPQPQVRAAVTIPAPPWDGAGDPCLSPKLLNGTVGATGPLEPSAMNLCWNEIKKKSHNLRARLEAFSDLSGKLQLPLREIIDWLSQKDEELSAQLPLQGDVALVQQEKETHAAFMEEVKSKGPYISSVLESAQAFLSQHPFEELEESQSESKDTSPRQRIQNLSRFVWKQATVASELWEKLTARCVDQHRHIEHTLEHLLEIQGAMEELSSTLTQAEGVRATWEPIGDLFIDSLPEHIQAIKLFKEEFSPVKDGVKLVNDLAHQLAISDVHLSMENSRALEQINIRWKQLQVSVAERLKQLQDAHRDFGPGSQHFLSTSVQVPWERAISPNKVPYYINHQAQTTCWDHPKMTELYQTLADLNNIKFSAYRTAMKLRRVQKALRLDLVTLTTALEIFNEHDLQASEHVMDVVEVIHCLTALYERLEEERGILVNVPLCVDMSLNWLLNVFDSGRSGKMRALSFKTGIACLCGTEVKEKLQYLFSQVANSGSQCDQRHLGALLHEAIQVPRQLGEVAAFGGSNVEPSVRSCFRFSTGKPVIEASQFLEWVNLEPQSMVWLAVLHRVTIAEQVKHQTKCSICRQCPIKGFRYRSLKQFNVDICQTCFLTGRASKGNKLHYPIMEYYTPTTSSENMRDFATTLKNKFRSKQYFSKHPQRGYLPVQSVLESDCSETPASSPMLPHADTHSRIEHFASRLAEMESQNCSFFNDSLSPDDSIDEDQYLLRHSSPITDREPAFGQQAPCSMATESKGELEKILAHLEDENRILQGELRRLKWQHEEAAEAPTLVEGSAEATPDHRNEELLAEARILRQHKSRLETRMQILEDHNKQLESQLQRLRELLLQPPSESDGNGSAGSSLASSPRQSEGSHPREKGQTTPDTEVADDVGSKSQDVSLCLEDIMEKLRHAFPSVRSSDVTANTLLAS
In the case of B1, in experiment [2], the binding result is recorded as “binds”.
For the molecule SGRRGRVRVRLPRVGLASPSK (N-terminal acetylation; C-terminal amidation) [PRX-C peptide 4 (residues 1290–1310)], the binding entry in experiment [3] is “no binding”.
On the same count and under the same terms, the entry for GEGIFKMPTVTVPQLELDVGLGHEAQ (N-terminal acetylation; C-terminal amidation) [PRX-C peptide 3 (residues 1135–1160)] is “no binding”.
Still for that read-out and setting: the entry for ASFGEAGPEIAAPSAEGTVG (N-terminal acetylation; C-terminal amidation) [PRX-C peptide 1 (residues 1091–1110)] is “no binding”; for RIQVPQVMLELPGTQVAGGDLL (N-terminal acetylation; C-terminal amidation) [PRX-C peptide 2 (residues 1112–1133)] it is “no binding”.

B2: PRX expressed in HEK293 cells (protein, UniProt Q63425 1-1383)
chain: T1 sequence
Consider B2, for which the binding entry in experiment [4] is “binds”.

B3: L-PRX in sciatic nerve lysate (protein, UniProt O55103 1-1391)
chain: MEARSRSAEELRRAELVEIIVETEAQTGVSGFNVAGGGKEGIFVRELREDSPAAKSLSLQEGDQLLSARVFFENFKYEDALRLLQCAEPYKVSFCLKRTVPTGDLALRPGTVSGYEMKGPRAKVAKLNIQSLAPVKKKKMVTGALGTPADLAPVDVEFSFPKFSRLRRGLKAEAVKGPVPAAPARRRLQLPRLRVREVAEEAQVARMAAAAPPPRKAKAEAEAATGAGFTAPQIELVGPRLPSAEVGVPQVSVPKGTPSTEAASGFALHLPTLGLGAPAAPAVEPPATGIQVPQVELPTLPSLPTLPTLPCLDTQEGAAVVKVPTLDVAAPSMGVDLALPGAEVEAQGEVPEVALKMPRLSFPRFGIRGKEATEAKVVKGSPEAKAKGPRLRMPTFGLSLLEPRPSGPEAVAESKLKLPTLKMPSFGIGVAGPEVKAPTGPEVKLPKVPEVKLPKVPEAAIPDVQLPEVQLPKMSDMKLPKIPEMVVPDVRLPEVQLPKVPEMKVPEMKLPKWPEMAVPDVHLPDVQLPKVPEMKLPKVPEMAVPDVHLPDVQLPKVPEMKLPEMKLPKVPEMAVPDVRLPEVQLPKVSEVKLPKMPEMAVPDVHLPELQLPKMSEVKLPKMPEMAVPDVRLPEVQLPKVSEMKLPKMPEMTMPDIRLPEVQLPKVPDIKLPEMKLPEIKLPKVPDMAVPDVPLPELQLPKVSDIRLPEMQVSQVPEVQLPKMPEMKLSKVPEVQRKSAGAEQAKGTEFSFKLPKMTMPKLGKVGKPGEASIEVPDKLMTLPCLQPEVGTEASHVGVPSLSLPSVELDLPGALGLEGQVQEAVPGKVEKPEGPRVAVGVGEVGFRVPSVEIVTPQLPTVEVEKEQLEMVEMKVKPSSKFSLPKFGLSGPKAVKGEVEGPGRATKLKVSKFTISLPKARAGTEAEAKGAGEAGLLPALDLSIPQLSLDAQLPSGKVEVADSKPKSSRFALPKFGVKGRDSEADVLVAGEAELEGKGWGWDGKVKMPKLKMPSFGLSRGKEAETQDGRVSPGEKLEAIAGQLKIPAVELVTPGAQETEKVTSGVKPSGLQVSTTGQVVAEGQESVQRVSTLGISLPQVELASFGEAGPEIVAPSAEGTAGSRVQVPQVMLELPGTQVAGGDLLVGEGIFKMPTVTVPQLELDVGLGHEAQAGEAAKSEGGIKLKLPTLGTGSRGEGVEPQGPEAQRTFHLSLPDVELTSPVSSHAEYQVVEGDGDGGHKLKVRLPLFGLAKAKEGIEVGEKVKSPKLRLPRVGFSQSESVSGEGSPSPEEEEEGSGEGASSRRGRVRVRLPRVGLASPSKVSKGQEGDATSKSPVGEKSPKFRFPRVSLSPKARSGSRDREEGGFRVRLPSVGFSETAVPGSTRIEGTQAAAI
Turning to B3, the binding entry in experiment [2] was “binds”.
